{"sequences": {"note": "Sequences of proteins named here, by UniProt entry; tags and fusion partners are left off.", "UniProt Q61312": "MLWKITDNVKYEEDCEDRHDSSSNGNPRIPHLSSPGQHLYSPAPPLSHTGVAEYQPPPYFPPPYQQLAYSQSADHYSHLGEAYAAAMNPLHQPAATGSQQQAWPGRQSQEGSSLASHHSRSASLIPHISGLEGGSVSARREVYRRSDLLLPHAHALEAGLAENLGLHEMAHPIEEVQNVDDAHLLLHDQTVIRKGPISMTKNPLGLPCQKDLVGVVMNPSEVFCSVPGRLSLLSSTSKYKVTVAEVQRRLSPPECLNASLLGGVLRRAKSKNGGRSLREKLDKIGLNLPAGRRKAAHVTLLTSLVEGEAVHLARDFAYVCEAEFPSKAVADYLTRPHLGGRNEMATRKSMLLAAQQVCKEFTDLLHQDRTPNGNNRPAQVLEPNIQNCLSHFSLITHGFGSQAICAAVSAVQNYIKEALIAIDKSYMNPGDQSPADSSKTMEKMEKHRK", "UniProt P48431": "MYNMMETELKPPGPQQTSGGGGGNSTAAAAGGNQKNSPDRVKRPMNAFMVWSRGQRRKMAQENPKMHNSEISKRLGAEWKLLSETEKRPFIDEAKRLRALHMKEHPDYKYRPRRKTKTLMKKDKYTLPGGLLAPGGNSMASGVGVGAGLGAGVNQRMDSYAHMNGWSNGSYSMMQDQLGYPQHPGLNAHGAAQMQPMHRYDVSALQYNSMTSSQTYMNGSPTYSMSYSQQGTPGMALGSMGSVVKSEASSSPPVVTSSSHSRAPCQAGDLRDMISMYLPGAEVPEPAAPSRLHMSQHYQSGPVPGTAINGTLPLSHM", "UniProt P01106": "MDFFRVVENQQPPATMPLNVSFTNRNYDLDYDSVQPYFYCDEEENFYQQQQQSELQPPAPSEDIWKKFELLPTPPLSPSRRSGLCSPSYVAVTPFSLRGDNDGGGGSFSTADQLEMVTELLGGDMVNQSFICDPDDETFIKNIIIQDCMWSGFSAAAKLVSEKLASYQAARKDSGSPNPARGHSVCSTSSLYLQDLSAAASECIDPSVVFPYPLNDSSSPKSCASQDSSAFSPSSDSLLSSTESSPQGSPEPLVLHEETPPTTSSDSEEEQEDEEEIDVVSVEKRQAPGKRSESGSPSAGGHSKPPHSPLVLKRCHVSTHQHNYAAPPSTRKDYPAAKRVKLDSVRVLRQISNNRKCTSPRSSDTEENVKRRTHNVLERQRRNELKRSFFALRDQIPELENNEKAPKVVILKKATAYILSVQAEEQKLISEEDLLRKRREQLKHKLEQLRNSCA", "UniProt Q01860": "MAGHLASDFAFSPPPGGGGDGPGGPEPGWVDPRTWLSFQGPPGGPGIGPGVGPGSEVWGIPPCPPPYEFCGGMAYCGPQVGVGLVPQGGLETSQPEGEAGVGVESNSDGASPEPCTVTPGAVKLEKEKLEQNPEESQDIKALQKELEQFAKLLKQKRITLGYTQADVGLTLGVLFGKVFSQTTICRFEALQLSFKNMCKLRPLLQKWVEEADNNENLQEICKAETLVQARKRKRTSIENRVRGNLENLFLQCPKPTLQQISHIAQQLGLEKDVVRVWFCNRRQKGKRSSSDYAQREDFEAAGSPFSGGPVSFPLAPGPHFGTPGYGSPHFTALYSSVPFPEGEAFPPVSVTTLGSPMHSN"}, "source": "paper PMC11798873", "key": {"TFAP2C [1]": {"molecular_target": "TFAP2C (UniProt Q61312)", "experiment": "co-IP; lysate of reprogrammed cells at 48 h (300 mM NaCl, 2% Triton X-100, 0.2% sodium deoxycholate); anti-TFAP2C or IgG on Dynabeads A and G; blot for MYC; in the presence or absence of DNase"}, "TFAP2C [2]": {"molecular_target": "TFAP2C (UniProt Q61312)", "experiment": "native gel or EMSA; super-shift EMSA; GETM-48h nuclear lysates with Cy5-labelled Cdx2 enhancer oligonucleotide containing a TFAP2C site; competitor oligonucleotides or antibodies added; 5% polyacrylamide, 0.5x TBE"}, "SOX2 (human)": {"molecular_target": "SOX2 (human) (UniProt P48431)", "experiment": "native gel or EMSA; super-shift EMSA; OSKM-48h nuclear lysates with Cy5-labelled Fgf4 enhancer oligonucleotide containing the OCT/SOX composite motif; competitor oligonucleotides or antibodies added; 5% polyacrylamide, 0.5x TBE"}, "EOMES": {"molecular_target": "T1, EOMES (UniProt O54839)", "T1 sequence": "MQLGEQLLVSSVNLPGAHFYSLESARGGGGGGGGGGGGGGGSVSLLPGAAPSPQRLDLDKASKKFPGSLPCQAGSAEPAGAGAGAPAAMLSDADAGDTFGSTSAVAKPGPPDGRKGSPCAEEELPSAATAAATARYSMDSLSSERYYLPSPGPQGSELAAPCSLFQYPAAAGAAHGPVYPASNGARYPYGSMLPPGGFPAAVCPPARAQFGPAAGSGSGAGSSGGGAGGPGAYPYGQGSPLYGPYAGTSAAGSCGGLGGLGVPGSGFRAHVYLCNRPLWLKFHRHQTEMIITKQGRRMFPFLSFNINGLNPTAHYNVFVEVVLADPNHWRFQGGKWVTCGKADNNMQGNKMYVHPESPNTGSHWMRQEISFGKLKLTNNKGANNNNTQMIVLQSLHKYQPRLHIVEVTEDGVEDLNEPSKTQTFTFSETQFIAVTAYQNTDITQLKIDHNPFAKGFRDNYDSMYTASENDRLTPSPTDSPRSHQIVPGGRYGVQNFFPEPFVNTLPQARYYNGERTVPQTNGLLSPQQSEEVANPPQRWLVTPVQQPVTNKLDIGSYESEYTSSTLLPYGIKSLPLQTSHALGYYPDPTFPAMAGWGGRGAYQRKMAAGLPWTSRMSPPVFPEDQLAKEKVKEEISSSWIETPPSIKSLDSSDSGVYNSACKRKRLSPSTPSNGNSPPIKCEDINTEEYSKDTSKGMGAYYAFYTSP", "experiment": "co-IP; anti-EOMES or anti-ESRRB on Dynabeads A and G; blot for TFAP2C; constant EOMES with increasing ESRRB, or constant ESRRB with increasing EOMES (amounts of transfected plasmid)"}}, "note": "No constants are given. Whether binding was seen depends on the method and setting. For some of these results: Binding seen in cells or lysates may run through a third protein. Some entries that bind do so weakly or less than the wild type."}
{"substance": "MYC (from UniProt P01106 1-454)", "values": [{"measurement": "binding", "setting": "TFAP2C [1]", "result": "binds"}, {"measurement": "binding", "setting": "TFAP2C [2]", "result": "binds"}]}
{"substance": "OCT4 (from UniProt Q01860 1-360)", "values": [{"measurement": "binding", "setting": "SOX2 (human)", "result": "binds"}]}
{"substance": "TFAP2C (from UniProt Q61312 1-449)", "values": [{"measurement": "binding", "setting": "EOMES", "result": "binds"}]}
